{"source": "patent US20250275951A1", "about": "“DRUGS TARGETING INFLAMMATION FOR THE TREATMENT OF OSTEOARTHRITIS AND OTHER INFLAMMATORY DISEASES” (The Board of Trustees of the Leland Stanford Junior …, priority 2020, published 2025)", "key": {"[1]": {"test_system": "human OA synovial tissue organoid", "assay": "Human OA synovial tissue organoid stimulation assay (qPCR)", "assay_type": "cell-based", "conditions": "rupatadine 1 μM, fenofibrate 1 μM or both; 24 hr with human OA synovial fluid; vs vehicle"}, "[2]": {"test_system": "DMM mouse model for OA", "assay": "Cartilage degeneration scoring of safranin-O stained joint sections in DMM mouse model for OA", "assay_type": "in vivo"}, "[3]": {"test_system": "synovial tissue of DMM mice", "assay": "qPCR analysis of synovial tissue from fenofibrate-treated DMM mice", "assay_type": "in vivo, mouse", "conditions": "synovial tissue from fenofibrate-treated mice after DMM"}, "[4]": {"test_system": "human OA synovial tissue explants", "conditions": "OA synovial fluid stimulation 24 hours, then treatment another 24 hours; vs SF-stimulated samples / either drug alone"}}, "note": "“Also recorded” adds a separate entry of the source. At least one structure is not confirmed: it was looked up by name or label, or the drawing left a doubt.", "data": [{"smiles": "CC(C)OC(=O)C(C)(C)Oc1ccc(C(=O)c2ccc(Cl)cc2)cc1", "note": "[Fenofibrate]", "values": [{"measurement": "PAF receptor (ptafr) gene expression", "setting": "[1]", "result": "decreased"}, {"measurement": "inflammatory lipid PAF biosynthesis enzyme (Ipcat2) gene expression", "setting": "[1]", "result": "decreased"}, {"measurement": "severity / development of OA (cartilage degeneration scores)", "setting": "[2]; C57Bl/6 mice, oral gavage from 1 week after DMM for 3 months, rupatadine 20 μg, fenofibrate 40 μg, or both", "result": "decreased the severity of OA"}, {"measurement": "cartilage degradation following DMM", "setting": "[2]; WT mice, 10 mg/kg fenofibrate for 12 wks following DMM, vs vehicle", "result": "significantly decreased cartilage degradation"}, {"measurement": "severity of OA-related cartilage degeneration following DMM", "setting": "[2]; WT mice, vs vehicle (combination also vs either drug alone), Example 1, dose not given at place", "result": "significantly less severe OA-related cartilage degeneration"}, {"measurement": "development / severity of OA following DMM", "setting": "[2]; mice, dose not given at place", "result": "prevents the development of OA; also recorded: reduced the severity of OA"}, {"measurement": "expression of OA inflammatory mediators in synovial tissue (qPCR)", "setting": "[3]", "result": "decreased expression of multiple OA inflammatory mediators"}, {"measurement": "LPCAT2 gene expression", "setting": "[4]", "result": "reduced"}, {"measurement": "PTAFR gene expression", "setting": "[4]", "result": "reduced"}]}]}
